Source: paper doi:10.64898/2025.12.21.695507

Target: Rhoptry Serine Hydrolase (RhoSH, PBANKA_1001500) (P. berghei)
Test: affinity purification with mass spectrometry

Q: “PBANKA_1312200, a putative ubiquitin-protein ligase (from UniProt A0A509AS13)” was tested. Which binding did it give?
A: Its binding is “binds”.

Results are given in words; binding and its absence hold for the method and conditions named. Binding seen in cells or lysates may run through a third protein. Here binding means that the protein was enriched with, or labelled near, the bait; the list need not be complete.
